From PMC2686699, “The interaction between the measles virus nucleoprotein and the Interferon Regulator Factor 3 relies on a specific cellular environment” (Virology Journal, 2009)
These are yes or no findings as the source states them, for the method shown. Sequences can lack the tags named with a protein.

Amino acid sequences for entries named in this document (tags omitted). Residues count along the entry.
UniProt P03422, residues 231-507: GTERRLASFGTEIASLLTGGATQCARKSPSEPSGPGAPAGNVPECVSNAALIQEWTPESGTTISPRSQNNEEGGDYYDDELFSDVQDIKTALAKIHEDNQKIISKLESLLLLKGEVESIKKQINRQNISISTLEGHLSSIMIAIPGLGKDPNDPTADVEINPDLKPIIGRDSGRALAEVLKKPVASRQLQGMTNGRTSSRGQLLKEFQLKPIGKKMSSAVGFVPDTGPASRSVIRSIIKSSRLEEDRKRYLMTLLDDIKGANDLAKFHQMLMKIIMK

Molecular target: BD-N_TAILΔ2,3 (N 401-488, two-hybrid bait) (measles virus) (UniProt P04851)
Assay: two-hybrid; Lex-A two hybrid assay in yeast by mating (MB226α baits, MB210a preys); growth and β-galactosidase on galactose/raffinose -His-Ura-Trp + X-Gal; repeated two times

Molecule	binding
AD-PCT (P 231-507, two-hybrid prey) (from UniProt P03422 231-507) (domain or fragment)	no binding
AD-IRF3 (full length IRF-3, two-hybrid prey) (protein, UniProt Q14653 1-427) MGTPKPRILPWLVSQLDLGQLEGVAWVNKSRTRFRIPWKHGLRQDAQQEDFGIFQAWAEATGAYVPGRDKPDLPTWKRNFRSALNRKEGLRLAEDRSKDPHDPHKIYEFVNSGVGDFSQPDTSPDTNGGGSTSDTQEDILDELLGNMVLAPLPDPGPPSLAVAPEPCPQPLRSPSLDNPTPFPNLGPSENPLKRLLVPGEEWEFEVTAFYRGRQVFQQTISCPEGLRLVGSEVGDRTLPGWPVTLPDPGMSLTDRGVMSYVRHVLSCLGGGLALWRAGQWLWAQRLGHCHTYWAVSEELLPNSGHGPDGEVPKDKEGGVFDLGPFIVDLITFTEGSGRSPRYALWFCVGESWPQDQPWTKRLVMVKVVPTCLRALVEMARVGGASSLENTVDLHISNSHPLSLTSDQYKAYLQDLVEGMDFQGPGES	no binding
